According to US8226989B2, “Anti-adipocyte fatty acid-binding protein (AP2), anti-flap and anti-CySLT1 receptor herbal compositions” (Laila Impex, priority 2008, dated 2012):
At least one structure is not confirmed: it was looked up by name or label, or the drawing left a doubt.

System: adipocyte fatty acid-binding protein aP2
Test: aP2 protein expression in LPS induced THP-1 monocyte-macrophage cells (immuno-western blot)
Assay type: cell-based, human
Conditions: THP-1 cells pre-treated 2 h, then LPS; extracts 5 or 10 μg/ml, 5-Loxin 5 μg/ml, montelukast 1 μM, NDGA 10 μM

With `CC(C)(O)c1ccccc1CC[C@@H](SCC1(CC(=O)O)CC1)c1cccc(/C=C/c2ccc3ccc(Cl)cc3n2)c1` [montelukast] the “inhibition of LPS induced aP2 protein expression” value was “significantly reduced”.
